# Experimental data: the supplement of paper PMC8007513
# ± gives the standard deviation of the averaged measurements. Some of the results follow. Most values come without repeats; read them as rough.
# System: Saccharomyces cerevisiae BY4743
# Experiment: growth (OD600) relative to untreated control; higher = less growth inhibition
# Conditions: compound concentration: 133 uM; 20 h
# Method: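 NMCCC compounds (133 uM, no IPBC) tested alone against Saccharomyces cerevisiae BY4743 in YPD, 96-well plates, starting OD600 ~0.1. Growth was read as OD600 at 20 h and expressed as % of the untreated control. Single pass.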
row,SMILES,growth
1,CCOC(=O)c1cc2n(n1)CC(C)(C(=O)NCCC(C)C)N(c1ccc(F)cc1)C2=O (centres undefined),87.7%
2,COC1=CC=C2N(C)\C=C(/C(=O)C2=C1)[S](=O)(=O)C3=CC=C(C)C=C3,90.4%
3,COC1=CC=C(F)C=C1CN2\C=N/C3=C(C(=C(C)S3)C)C2=O,98.7%
4,CC1=CC=C(C=C1)C2(\N=C(Cl)/C(=C3/C=C\C=C/N23)C#N)C(F)(F)F (centres undefined),103%
5,CCC(=O)N[C@@H](Cc1ccccc1)C(=O)Nc1cc(C)on1,105%
6,COC1=CC=C(NC(=O)CN2\C(=N/C3=C(C(=NO3)C)C2=O)C)C=C1OC,104%
7,COc1ccc(OC)c(C(C)NC(=O)C2CCCCN2S(=O)(=O)c2ccc(C(C)=O)cc2)c1 (centres undefined),70%
8,CNc1snc(C)c1C(=O)OCc1coc(-c2cccs2)n1,101%
9,COC(=O)c1c(C)nn(-c2ccc(F)cc2)c1-n1cccc1,94.9%
10,Oc1nc2ccccc2nc1SCc1ccon1,97.9%
11,CC(C)c1nccn1-c1ccc(NC(=O)c2ccc(N(C)C)cc2)cc1,108%
12,CN(C)C1(CCCCCC1)CNC(=O)CN2\N=C3\CCCCCN3C2=O,103%
13,CCN\1C(=O)NC(=O)\C(=C1N)SC2=NC3=CC=CC=C3S2,112%
14,Cc1c(Cl)cccc1NC(=O)CNC(=O)CCCc1nc(O)c2ccccc2n1,105%
15,CS(=O)(=O)N1CCC(C(=O)Nc2cc(-c3cc(Br)ccc3Cl)[nH]n2)CC1,106%
16,CC(C(=O)O)n1c(SCC(=O)N(C)CCOc2ccc(Cl)cc2)nnc1-c1cccs1 (centres undefined),112%
17,CCCCN1\C(=N/[S](=O)(=O)C2=CC=CC=C12)SCC(=O)C3=CC=CC=C3,91.9%
18,Cc1nc(Nc2ccc(F)cc2Cl)c2cc(C)sc2n1,97.9%
19,Cc1c(SCCO)c(O)nc2cc3c(cc12)OCO3,92.4 ± 9.8%
20,CCn1c(-c2ccc(Br)cc2)cnc1SCC(=O)Nc1ccc(C(N)=O)cc1,91.1%

# Single entries from the results shown.
# Under growth, CC(C)c1nccn1-c1ccc(NC(=O)c2ccc(N(C)C)cc2)cc1 reads 108%
# Under growth, Oc1nc2ccccc2nc1SCc1ccon1 reads 97.9%

# (cont.)

row,SMILES,growth
1,CC(C)c1csc(NC(=O)c2cnn(-c3ccccc3)c2)n1,94%
2,CCC(C)c1ccc(NC(=O)c2cnn3c(C(F)F)cc(C)nc23)cc1 (centres undefined),97.4%
3,CCCCS(=O)(=O)Nc1cnn(Cc2ccc(F)cc2)c1,105%
4,CC(Sc1ccc2c(c1)OCCCO2)C(=O)Nc1sccc1C(N)=O (centres undefined),116%
5,CSCCC(NC(=O)c1ccc(C(C)(C)C)cc1)C(=O)Nc1ccc(N2CCOCC2)cc1 (centres undefined),103%
6,Cc1[nH]c2ccc(C(=O)OCC(=O)c3cc(C)n(C)c3C)cc2c1C,94.2%
7,CCOC(=O)Cc1ccc(NC(=O)NCc2c(C)nn(CC)c2C)cc1,88.9%
8,COc1ccccc1NC(=O)Nc1ccc2c(c1)C(=O)OC2,93.6%
9,CCCCN1\C=N/[S](=O)(=O)C2=CC=C(C=C12)C(F)(F)F,106%
10,CCCOc1ccc(C(F)(F)F)cc1NC(=O)C1CSC2(C)CCC(=O)N12 (centres undefined),104%
11,CCN(CC(=O)NC1CCS(=O)(=O)C1)C(=O)c1ccc(-n2cncn2)cc1 (centres undefined),103%
12,COc1ccc(C2c3cc(OC)c(OC)cc3CCN2C(=O)C(C)(C)C)cc1OC (centres undefined),104%
13,CC(C)CC(=O)NC(C)C(c1cccs1)N1CCN(c2ccccc2)CC1 (centres undefined),106%
14,CCN(CC(=O)Nc1ccccc1C(F)(F)F)C(=O)CSCC(=O)Nc1cc(C)on1,98.7%
15,COc1cc(OC)c(C(=O)Nc2ccc3c(c2)NC(=O)C(C)O3)cc1OC (centres undefined),105%
16,COc1cccc(NC(=O)Cc2csc(C(C)C)n2)c1,96.5%
17,CCCn1c(O)nnc1SCc1cc(C(=O)OC)c(C)o1,110%
18,FC1=CC=CC(=C1)CCNC(=O)CCC(=O)N\2CC\C(=N2)C3=CC=CC=C3,100%
19,CCOC(=O)c1c(C)[nH]c(C)c1S(=O)(=O)NCC(=O)N1CCN(CC)CC1,111%
